Laboratory results: patent publication US20080221134A1, “8-ALKYNYLXANTHINES AND DERIVATIVES” (priority 2006, published 2008)
At least one structure is not confirmed: it was looked up by name or label, or the drawing left a doubt.

Columns and labels:
[1] = system: CGS-21680 induced catalepsy; assay: Acute CGS-21680 induced catalepsy test; format: in vivo, rat; settings: i.p. in DMSO, 0.1-10 mg/kg; listed as 8-(phenylethynyl)-DPMX
Description: Animals were administered with Reserpine or CGS-21680 according to methods known to the skilled person in the art. These models and procedures are e.g. described by Ferré S. et al., Neurosci. Let., 1991, 130, 162; Ferré S. et al., Neuroscience, 1992, 51, 501; Kafka S. H. et al., Eur. J. Pharmacol., 1996, 295, 147; Rimondini R. et al., Neuropsychopharmacology, 1997, 17, 82 and are herein incorporated by reference. […]
The catalepsy bar after CGS-21680 administration was measured (CAT) as follows: The rat was placed with its forepaws on a log of wood. […] The following parameters were calculated: maximum time to descend (s) and median time to descend (s). […]
The rat is taken in the hand of the observer and the animal's body tone is rated as normal, soft or hard. […] The following parameters were calculated: mean occurrence of hard body tone and mean occurrence of soft body tone.
The rat is horizontally placed to an inclined plane for a maximum time of 30 seconds. Time to reach bottom or top is measured. […] Time to leave the inclined plane(s) was measured.
The rat is put on a grip and the observer pulls the animal back on his tail. The strength (fore paws and hind paws) by which it holds on the grid is scored as grasping and pulling, grasping without pulling or no grasping. […] The following parameters were calculated: mean score of fore paw grip strength and mean score of hind paw grip strength. […]

[2] = system: Reserpine induced catalepsy; assay: Acute Reserpine induced catalepsy test; format: in vivo, rat; settings: i.p. in DMSO, 0.1-10 mg/kg; listed as 8-(phenylethynyl)-DPMX
Description: Animals were administered with Reserpine or CGS-21680 according to methods known to the skilled person in the art. These models and procedures are e.g. described by Ferré S. et al., Neurosci. Let., 1991, 130, 162; Ferré S. et al., Neuroscience, 1992, 51, 501; Kafka S. H. et al., Eur. J. Pharmacol., 1996, 295, 147; Rimondini R. et al., Neuropsychopharmacology, 1997, 17, 82 and are herein incorporated by reference. In the acute CGS-21680 induced catalepsy model (CGS model) the test compounds (TC, compounds according to the present invention) and CGS-21680 (i.p. 2 mg/kg) were administered 60 minutes before the start of the catalepsy bar measurement and behavioural testing described below (see also FIG. 1). In the acute Reserpine induced catalepsy model (RES model Resperine (subcutaneously, 3 mg/kg) was injected 24 h prior to the test compound application. Catalepsy bar measurement took place 60 minutes after test compound application (see FIG. 1). Test compounds were administered i.p. in DMSO in following doses (mg/kg): 0.1, 0.3, 1, 3, 10.
Dimethylsulfoxide (DMSO) was used as vehicle for the test compounds and Reserpine. […]
The catalepsy bar after Reserpine administration was measured (CAT) as follows: The rat was placed with its forepaws on a log of wood. […] The following parameters were calculated: maximum time to descend (s) and median time to descend (s). […]

## C#CCn1c(=O)c2c(nc(C#Cc3ccccc3)n2C)n(C)c1=O [reference compound]
[1]
  effect on catalepsy time in acute CGS-21680 induced catalepsy model: not to be active
[2]
  effect on catalepsy time in acute Reserpine induced catalepsy model: not to be active
